Results: PMC7819943, “Rice protein-binding microarrays: a tool to detect cis-acting elements near promoter regions in rice”
This is one part of the list.

The chains behind the UniProt entries cited, without tags or fusion partners.
UniProt Q0JBA9, entry or part of it: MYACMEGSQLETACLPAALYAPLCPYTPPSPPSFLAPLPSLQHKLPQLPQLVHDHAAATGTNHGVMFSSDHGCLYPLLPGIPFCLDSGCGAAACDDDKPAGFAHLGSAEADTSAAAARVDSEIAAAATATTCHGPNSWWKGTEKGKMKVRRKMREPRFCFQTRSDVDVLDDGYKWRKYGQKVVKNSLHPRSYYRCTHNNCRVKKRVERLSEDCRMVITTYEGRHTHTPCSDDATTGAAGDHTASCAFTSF

What follows are sequences tested against OsWRKY34 (Oryza sativa, UniProt Q0JBA9 1-250) (assay: protein-binding microarray (RPBM); PBS, 2% BSA, 51.3 ng/ul salmon testes DNA, 50 uM zinc acetate, 200 nM TF, 25 C, 1 h; high values mean tight binding). Settings: protein: recombinant; tags: N-terminal polyhistidine and DsRed monomer fusion (pET32a); label: CyDye5-dUTP incorporated in the synthesized complementary strand; 3' TTTTT single-stranded linker to array surface; dsDNA, one strand shown.
In short: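 Ni–NTA purification followed expression in E. coli BL21-CodonPlus of transcription factors fused N-terminally to a polyhistidine tag and DsRed. At 200 nM in PBS with 2% BSA, salmon testes DNA and 50 µM zinc acetate, the protein was incubated for 1 h at 25 °C with a custom Agilent array that had been primer-extended with Cy5-dUTP and blocked with 2% BSA. After washing, the array was read on an Axon 4000B scanner. The binding signal is per-feature fluorescence intensity in arbitrary units.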

Point of comparison: “GCGACTCTGCCTCCTATACGGTCATAGTCCATGCAGTACCCGGAGTCACCTAGTGCAG”, binding signal 9520 fluorescence intensity (a.u.). Against it:
- TGTATTTCAATCGGTTTTAAATTCGTTCGCTTTTGGAAATCGGAGTCACCTAGTGCAG — lower, 8480 fluorescence intensity (a.u.)
- ATGTTGTGACACGCTATATATTTTTCTTGTTCATATTCAACGGAGTCACCTAGTGCAG — lower, 8190 fluorescence intensity (a.u.)
- TTGTGGTTATAGGGCTTGTTTGGTTCTTTACCCTACCAATCGGAGTCACCTAGTGCAG — lower, 8490 fluorescence intensity (a.u.)
- ACACCTCTATTTTTTATATAATGTTTGTTTGCATTGTACACGGAGTCACCTAGTGCAG — higher, 11700 fluorescence intensity (a.u.)
- TACCTCCGTTTTTTAATAGATGACGCCGTTGACTTTTTCTCGGAGTCACCTAGTGCAG — higher, 25000 fluorescence intensity (a.u.)
- CATCTCCATCTACATATACGGCCGCTTCCAACTGCAATCTCGGAGTCACCTAGTGCAG — higher, 10400 fluorescence intensity (a.u.)
- CCTCCCCTCCGTCAGATCCGGGGAGGGGCGGCCGCGGAGGCGGAGTCACCTAGTGCAG — lower, 8110 fluorescence intensity (a.u.)
- CACTCCATATGACAAATGCATGCCTCTCTCACTTCTTCCCCGGAGTCACCTAGTGCAG — lower, 8580 fluorescence intensity (a.u.)
- AATAGTATTTCCGTTTGTTGTTGAAAATATTGTTTTGTTTCGGAGTCACCTAGTGCAG — higher, 10900 fluorescence intensity (a.u.)
- CGCTGACGACCGCCGGCGCGCCGTTCCACCTCGCCGCCGGCGGAGTCACCTAGTGCAG — higher, 10500 fluorescence intensity (a.u.)
- AACACCGGCGCCTGCCGACCACCCGCCGCCGCTCTTATCACGGAGTCACCTAGTGCAG — higher, 13700 fluorescence intensity (a.u.)
- GCGCACCACCACCACCCAACCCCAAGTCCATCCACGGTTTCGGAGTCACCTAGTGCAG — higher, 12800 fluorescence intensity (a.u.)
- CTGATCGAATACTCTAGCATTGCGATCTTTCCAAATTTGCCGGAGTCACCTAGTGCAG — lower, 8510 fluorescence intensity (a.u.)
- ACATGTAAACTGTGCAATTGATTTTTTTTGTCCACATTTACGGAGTCACCTAGTGCAG — higher, 10400 fluorescence intensity (a.u.)
- TGCTTTTTTTTTCTAATCTGGCTTTGTTAAGTTTGACTAACGGAGTCACCTAGTGCAG — higher, 10200 fluorescence intensity (a.u.)
- TGGGATGGAGAGAGTAGGTTATAGCAACATGAGTTTGTGACGGAGTCACCTAGTGCAG — higher, 9660 fluorescence intensity (a.u.)
- CGAGTCCACTCCTCGTCGCACGCCTGCCTGCGTCACCACCCGGAGTCACCTAGTGCAG — lower, 8440 fluorescence intensity (a.u.)
- GTTTCGCGCTCGTGGTTTCTTACTTGACGCACGTGCAATCCGGAGTCACCTAGTGCAG — higher, 10800 fluorescence intensity (a.u.)
- TAGGTAGTGTTTGGTTGCAAGGATGGGATAGAATGGGATGCGGAGTCACCTAGTGCAG — lower, 8230 fluorescence intensity (a.u.)
- TACATCATCTAGTGTTGCAGCAGCAGTGTGTGTAAGAGGACGGAGTCACCTAGTGCAG — higher, 28500 fluorescence intensity (a.u.)
- GATCATCGTCCTATTTGGCTTTCGGCGGCCAGCCCGCCTCCGGAGTCACCTAGTGCAG — lower, 8940 fluorescence intensity (a.u.)
- TTATTTTATGTCGGTCTTATGTGTCGTGATGTATTTAACACGGAGTCACCTAGTGCAG — lower, 9330 fluorescence intensity (a.u.)
- CCCCTAGCGCCCCGGAAGCCTCATCTCCTCCTCCCGCGCCCGGAGTCACCTAGTGCAG — lower, 8620 fluorescence intensity (a.u.)
- TGTCCGTCACGAAATCTCCAATCGCGTCATCAGCTATACCCGGAGTCACCTAGTGCAG — higher, 10100 fluorescence intensity (a.u.)
- TTTCACCGTCTCGTTCAATCGATCGTAACCGAAACCGCATCGGAGTCACCTAGTGCAG — lower, 9510 fluorescence intensity (a.u.)
- ACCCAAAGGGTGCTAATTGGGGCTATTTTTGGTGGGGCTCCGGAGTCACCTAGTGCAG — lower, 9270 fluorescence intensity (a.u.)
- CTGGGCGATCTCTCTCTTCCTAATCATAGATCTCAACATACGGAGTCACCTAGTGCAG — lower, 8210 fluorescence intensity (a.u.)
- TTTAGGGGTACATATTTCTGGTGTTGTGGTTAAGGGATCTCGGAGTCACCTAGTGCAG — higher, 10100 fluorescence intensity (a.u.)
- TAGTCGATGGGCTGGATGTGGGACTGAGCGTTGGGCCGGGCGGAGTCACCTAGTGCAG — lower, 8800 fluorescence intensity (a.u.)
- GGGTGTCACGTTGTCATGTTATGTTTTTGTTCTGGAGATTCGGAGTCACCTAGTGCAG — higher, 13500 fluorescence intensity (a.u.)
- CAACGTCTCCACCTTTTCGGCCGCGGCTTCCGCCGGAAGCCGGAGTCACCTAGTGCAG — higher, 9890 fluorescence intensity (a.u.)
- ACACCCGCTCTCCTCCACCACACGCCGCCCAATCACCACCCGGAGTCACCTAGTGCAG — higher, 11300 fluorescence intensity (a.u.)
- CATTTTTCATATGTTGTATCCAGTAGCTATATTAGTACTACGGAGTCACCTAGTGCAG — higher, 9930 fluorescence intensity (a.u.)
- TCGCCGCTTTCCCTTTCTCCCCTGCGCTCTCACGTCAAACCGGAGTCACCTAGTGCAG — lower, 8970 fluorescence intensity (a.u.)
- AACTTCCAACTTTTCCGTCACATCGTTCCAATTTCAATCACGGAGTCACCTAGTGCAG — lower, 9070 fluorescence intensity (a.u.)
- ACAGATCAGGTTGTGTTTCTTGGTTTTGTTGTTTCAGGTTCGGAGTCACCTAGTGCAG — lower, 8480 fluorescence intensity (a.u.)
- TGCTCATCCTCGACCTCCACTCCCGATGGGGCAACCGGTACGGAGTCACCTAGTGCAG — lower, 8140 fluorescence intensity (a.u.)
- ATTTTCATTTCTTCTTCTTGCTTATGTAAAGTAGCAGTTGCGGAGTCACCTAGTGCAG — lower, 8160 fluorescence intensity (a.u.)
- TCTGCTTTTATTCATCGGTTTCATTAATTGTTTCTGTTACCGGAGTCACCTAGTGCAG — higher, 17200 fluorescence intensity (a.u.)
- ACTTTTTAAAACATGTTTGACCGTTCATCTTATTTAAAAACGGAGTCACCTAGTGCAG — lower, 8690 fluorescence intensity (a.u.)
- CTATACTATGTCTATGAATGTTATTTTTACTGGCTTTTGACGGAGTCACCTAGTGCAG — lower, 9090 fluorescence intensity (a.u.)
